Assay results as given in US20250154171A1, “RAS INHIBITORS” (Revolution Medicines, Inc., priority 2023, published 2025).
pIC50: −log10 of the molar value. Some of these results come from one statement about several compounds together.

Amino acid sequences for entries named in this document (tags omitted). A change or cut given only in a name is not applied to a line headed by its entry. Residues count along the entry.
UniProt P01116, 1-188 isoform P01116-2 G12V: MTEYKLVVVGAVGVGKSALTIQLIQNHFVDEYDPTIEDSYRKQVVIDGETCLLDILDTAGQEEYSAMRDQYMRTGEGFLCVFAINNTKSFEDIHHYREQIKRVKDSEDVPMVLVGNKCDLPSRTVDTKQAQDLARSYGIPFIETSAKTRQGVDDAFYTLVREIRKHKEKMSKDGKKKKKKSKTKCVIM
UniProt P62937, whole entry: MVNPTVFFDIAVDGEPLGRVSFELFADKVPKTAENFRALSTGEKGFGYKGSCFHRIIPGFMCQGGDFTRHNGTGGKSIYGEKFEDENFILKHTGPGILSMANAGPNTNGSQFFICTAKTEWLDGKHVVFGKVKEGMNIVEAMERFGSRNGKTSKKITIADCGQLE

What was measured:
[1] = molecular target: K-RasG12V (Homo sapiens, UniProt P01116+P62937, G12V); test: Disruption of BRAF RBD interaction with K-Ras (TR-FRET / MOA assay), K-RasG12V; type: biochemical; settings: TR-FRET with cyclophilin A and GST-BRAF RBD, read-out: IC50 with respect to K-RasG12V (disruption of BRAF RBD interaction)
[2] = system: Capan-1 (K-Ras G12V); test: CellTiter-Glo cell viability assay, Capan-1; type: cell-based, human; settings: 5-day treatment, Capan-1 versus A375

| SMILES | pIC50 [1] | decrease in cell viability with respect to KRAS G12V (Capan-1) versus wild-type KRAS (A375) [2] |
| --- | --- | --- |
| CO[C@@H](C)c1ncc(N2CCN(C3CC3)CC2)cc1-c1c2c3cc(ccc3n1CCOC1CCS(=O)(=O)CC1)-c1csc(n1)[C@@H](N1CCOCC1)[C@H](NC(=O)C13CC(C1)[C@@H](C)O3)C(=O)N1CCC[C@H](N1)C(=O)OCC(C)(C)C2 (racemic) [Example A525] | > 6.00 | greater decrease in cell viability |
| CCN[C@@H]1c2nc(cs2)-c2ccc3c(c2)c(c(-c2cc(N4CCN(C5CC5)CC4)cnc2[C@H](C)OC)n3CCOC2CCS(=O)(=O)CC2)CC(C)(C)COC(=O)[C@@H]2CCCN(N2)C(=O)[C@H]1NC(=O)C12CC(C1)[C@@H](C)O2 (racemic) [Example A526] | > 6.00 | greater decrease in cell viability |
| CO[C@@H](C)c1ncc(N2CCN(C3CC3)CC2)cc1-c1c2c3cc(ccc3n1CCO[C@H]1CCOC(C)(C)C1)-c1nc(co1)[C@@H](N1CCCC1)[C@H](NC(=O)[C@@H]1[C@@H](C)[C@H]1c1ccccn1)C(=O)N1N[C@H](C(=O)OCC(C)(C)C2)C2CC1C2 (racemic) [Example A527] | > 6.00 | greater decrease in cell viability |
| CO[C@@H](C)c1ncc(N2CCN(C3CC3)CC2)cc1-c1c2c3cc(ccc3n1CCO[C@@H]1CCOC(C)(C)C1)-c1nc(co1)[C@@H](N1CCCC1)[C@H](NC(=O)[C@@H]1[C@@H](C)[C@H]1c1ccccn1)C(=O)N1N[C@H](C(=O)OCC(C)(C)C2)C2CC1C2 (racemic) [Example A528] | > 6.00 | greater decrease in cell viability |
| CO[C@@H](C)c1ncc(N2CCN(C3CC3)CC2)cc1-c1c2c3cc(ccc3n1CCOC1CCOC(C)(C)C1)-c1nc(co1)[C@@H](N1CCCC1)[C@H](NC(=O)[C@@H]1[C@@H](C)[C@H]1c1cocn1)C(=O)N1N[C@H](C(=O)OCC(C)(C)C2)C2CC1C2 (mixture of isomers) [Example A529] | > 6.00 | greater decrease in cell viability |
| CO[C@@H](C)c1ncc(N2CCN(C3CC3)CC2)cc1-c1c2c3cc(ccc3n1CCO[C@@H]1CCOC(C)(C)C1)-c1csc(n1)[C@@H](N1CCOCC1)[C@H](NC(=O)[C@@H]1CCO1)C(=O)N1N[C@H](C(=O)OCC(C)(C)C2)C2CC1C2 (racemic) [Example A530] | > 6.00 | greater decrease in cell viability |
| CO[C@@H](C)c1ncc(N2CCN(C3CC3)CC2)cc1-c1c2c3cc(ccc3n1CCOC1CCOCC1)-c1csc(n1)[C@@H](N(C)CC(F)F)[C@H](NC(=O)[C@H]1[C@H](C)[C@@H]1C)C(=O)N1CCC[C@H](N1)C(=O)OCC(C)(C)C2 (racemic) [Example A531] | > 6.00 | greater decrease in cell viability |
| CO[C@@H](C)c1ncc([C@@H]2CCN(C)C2)cc1-c1c2c3cc(ccc3n1C1COC1)-c1csc(n1)[C@@H](N1CCOCC1)[C@H](NC(=O)C13CC(CO1)C3)C(=O)N1CCC[C@H](N1)C(=O)OCC(C)(C)C2 (racemic) [Example A532] | > 6.00 | greater decrease in cell viability |
| CCO[C@@H]1c2nc(cs2)-c2ccc3c(c2)c(c(-c2cc(N4CCN(C5CC5)CC4)cnc2[C@H](C)OC)n3CCOC2CCOCC2)CC(C)(C)COC(=O)[C@@H]2CCCN(N2)C(=O)[C@H]1NC(=O)[C@H]1[C@H](C)[C@@H]1c1cnsn1 (racemic) [Example A534] | > 6.00 | greater decrease in cell viability |
| CCO[C@@H]1c2nc(cs2)-c2ccc3c(c2)c(c(-c2cc(N4CCN(C5CC5)CC4)cnc2[C@H](C)OC)n3CCOC2CCOCC2)CC(C)(C)COC(=O)[C@@H]2CCCN(N2)C(=O)[C@H]1NC(=O)[C@@H]1[C@@H](C)[C@H]1c1cnsn1 (racemic) [Example A535] | > 6.00 | greater decrease in cell viability |
| CO[C@@H](C)c1ncc(N2CCN(C3CC3)CC2)cc1-c1c2c3cc(ccc3n1CCOC1CCOCC1)-c1csc(n1)[C@@H](N1CC3(CF)CC1C3)[C@H](NC(=O)[C@H]1[C@H](C)[C@@H]1C)C(=O)N1CCC[C@H](N1)C(=O)OCC(C)(C)C2 (racemic) [Example A536] | > 6.00 | greater decrease in cell viability |
| CCO[C@@H]1c2nc(cs2)-c2ccc3c(c2)c(c(-c2cc(N4CCN(C5CC5)CC4)cnc2[C@H](C)OC)n3CCOC2CCS(=O)(=O)CC2)CC(C)(C)COC(=O)[C@@H]2CCCN(N2)C(=O)[C@H]1NC(=O)[C@@H]1[C@@H](C)[C@H]1c1ccncn1 (racemic) [Example A537] | > 6.00 | greater decrease in cell viability |
| CO[C@@H](C)c1ncc(N2CCN(C3CC3)CC2)cc1-c1c2c3cc(ccc3n1CCOC1CCS(=O)(=O)CC1)-c1csc(n1)[C@@H](N1CCCC1)[C@H](NC(=O)[C@@H]1[C@@H](C)[C@H]1c1ccncn1)C(=O)N1CCC[C@H](N1)C(=O)OCC(C)(C)C2 (racemic) [Example A538] | > 6.00 | greater decrease in cell viability |
| CO[C@@H](C)c1ncccc1-c1c2c3cc(ccc3n1CCOC1CCOCC1)-c1csc(n1)[C@@H](OC[C@@H](C)F)[C@H](NC(=O)[C@@H]1[C@@H](C)[C@H]1c1ccncn1)C(=O)N1N[C@H](C(=O)OCC(C)(C)C2)C2CC1C2 (racemic) [Example A539] | > 6.00 | greater decrease in cell viability |
| CO[C@@H](C)c1ncc(N2CCN(C3CC3)CC2)cc1-c1c2c3cc(ccc3n1CCO[C@@H]1CCOC(C)(C)C1)-c1csc(n1)[C@@H](N1CCCC1)[C@H](NC(=O)[C@@H]1[C@@H](C)[C@H]1c1ccncn1)C(=O)N1CCC[C@H](N1)C(=O)OCC(C)(C)C2 (racemic) [Example A540] | > 6.00 | greater decrease in cell viability |
| CO[C@@H](C)c1ncc(N2CCN(C3CC3)CC2)cc1-c1c2c3cc(ccc3n1CCO[C@@H]1CCOC(C)(C)C1)-c1nc(co1)[C@@H](N1CCCC1)[C@H](NC(=O)[C@@H]1[C@@H](C)[C@H]1c1cocn1)C(=O)N1N[C@H](C(=O)OCC(C)(C)C2)C2CC1C2 (racemic) [Example A541] | > 6.00 | greater decrease in cell viability |
| CO[C@@H](C)c1ncc(N2CCN(C3CC3)CC2)cc1-c1c2c3cc(ccc3n1CCO[C@@H]1CCOC(C)(C)C1)-c1csc(n1)[C@@H](N1CCOCC1)[C@H](NC(=O)[C@@H]1[C@@H](C)[C@H]1c1ccccn1)C(=O)N1CCC[C@H](N1)C(=O)OCC(C)(C)C2 (racemic) [Example A542] | > 6.00 | greater decrease in cell viability |
| CO[C@@H](C)c1ncc(N2CCN(C3CC3)CC2)cc1-c1c2c3cc(ccc3n1CCO[C@@H]1CCOC(C)(C)C1)-c1csc(n1)[C@@H](N1CCCC1)[C@H](NC(=O)[C@@H]1[C@@H](C)[C@H]1c1ccccn1)C(=O)N1CCC[C@H](N1)C(=O)OCC(C)(C)C2 (racemic) [Example A543] | > 6.00 | greater decrease in cell viability |
| CO[C@@H](C)c1ncc(N2CCN(C3CC3)CC2)cc1-c1c2c3cc(ccc3n1CCO[C@H]1CCOC(C)(C)C1)-c1csc(n1)[C@@H](N1CCOCC1)[C@H](NC(=O)[C@@H]1[C@@H](C)[C@H]1c1cocn1)C(=O)N1CCC[C@H](N1)C(=O)OCC(C)(C)C2 (racemic) [Example A544] | > 6.00 | greater decrease in cell viability |
| CO[C@@H](C)c1ncc(N2CCN(C3CC3)CC2)cc1-c1c2c3cc(ccc3n1CCO[C@@H]1CCOC(C)(C)C1)-c1csc(n1)[C@@H](N1CCOCC1)[C@H](NC(=O)[C@@H]1[C@@H](C)[C@H]1c1cocn1)C(=O)N1CCC[C@H](N1)C(=O)OCC(C)(C)C2 (racemic) [Example A545] | > 6.00 | greater decrease in cell viability |
| CO[C@@H](C)c1ncc(N2CCN(C3CC3)CC2)cc1-c1c2c3cc(ccc3n1CCO[C@@H]1CCOC(C)(C)C1)-c1csc(n1)[C@@H](N1CCCC1)[C@H](NC(=O)[C@@H]1[C@@H](C)[C@H]1c1cocn1)C(=O)N1CCC[C@H](N1)C(=O)OCC(C)(C)C2 (racemic) [Example A546] | > 6.00 | greater decrease in cell viability |
| CO[C@@H](C)c1ncc(N2CCN(C3CC3)CC2)cc1-c1c2c3cc(ccc3n1CCOC1CCOCC1)-c1csc(n1)[C@@H](N1CCOCC1)[C@H](NC(=O)[C@H]1[C@H](C)[C@@H]1c1ncc(F)cc1F)C(=O)N1CCC[C@H](N1)C(=O)OCC(C)(C)C2 (racemic) [Example A547] | > 6.00 | greater decrease in cell viability |
| CO[C@@H](C)c1ncc(N2CCN(C3CC3)CC2)cc1-c1c2c3cc(ccc3n1CCOC1CCOCC1)-c1csc(n1)[C@@H](N1CCOCC1)[C@H](NC(=O)[C@@H]1[C@@H](C)[C@H]1c1ncc(F)cc1F)C(=O)N1CCC[C@H](N1)C(=O)OCC(C)(C)C2 (racemic) [Example A548] | > 6.00 | greater decrease in cell viability |
| CO[C@@H](C)c1ncc(N2CCN(C3CC3)CC2)cc1-c1c2c3cc(ccc3n1CCOC1CCOCC1)-c1csc(n1)[C@@H](N1CCCC1)[C@H](NC(=O)C13CC(C1)[C@@H](C)O3)C(=O)N1N[C@H](C(=O)OCC(C)(C)C2)C2CC1C2 (racemic) [Example A549] | > 6.00 | greater decrease in cell viability |
